PubChem BioAssay AID504791 – Drosophila RNAi Screening Center – 2011
The screen tested about 23,000 reagents; shown is a random part of those that have a named target and a result. Of all reagents, 199 (0.86%) are marked active. 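Plate-scaled ratios behind the calls are not deposited; printed light signals are raw; many rows marked increased or decreased are still called inactive.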 Unmarked entries are inactive. A plus sign joins genes that one reagent is predicted to hit.

- Test: 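Genes whose knock-down strengthens or weakens small-RNA reporter silencing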 (primary screen)
- System: Drosophila S2-derived reporter cells
- Reagent: long dsRNA against Drosophila genes, about 150-250 ng dsRNA per well (siRNA assay); about 80-120 ng (miRNA assay)
- Timing: about 5 days (siRNA assay); about 4 days (miRNA assay)
- Conditions: copper sulfate induction of reporters: 25 µM (siRNA assay); 200 mM stated (miRNA assay), 1-2 days before reading
- Measurement: 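Dual luciferase assay: Renilla to firefly signal ratio in each well, scaled to the mean ratio of its plate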
- Scale: siRNA reporter hit score: higher = 3 marks a strong hit with raised ratio; -3 a strong hit with lowered ratio
- Call rule: 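First-pass picks had plate-scaled ratios over 1.5 for the siRNA assay, over 1.6 for the miRNA assay, or under 0.6; two distinct dsRNAs had to score alike on retest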

gene knocked down	dsRNA	siRNA reporter hit score	stable siRNA reporter change	miRNA reporter change	stable assay Renilla, run 1 (luminescence)	stable assay firefly, run 1 (luminescence)
RpL18A (Ribosomal protein L18A)	DRSC07538				6738	2.72e5
D19B	DRSC11134				6627	3.52e5
CG15282	DRSC22620				2379	2.58e5
CG15282	DRSC23090				3659	2.66e5
Acp63F (Accessory gland protein 63F)	DRSC08137				6432	5.17e5
defl (deflated)	DRSC10300	-3			9215	6.93e5
CG11403	DRSC18532				7803	4.36e5
CG15570	DRSC18058				4428	3.08e5
CG1812	DRSC20557				8947	7.43e5
CG9555	DRSC03264				7316	4.44e5
CG31975 + ovm	DRSC00323				7015	3.76e5
CG42566	DRSC03949				5196	3.81e5
CG30010	DRSC05193				5007	4.45e5
Osi13 (Osiris 13)	DRSC12281				6498	4.48e5
CG7252	DRSC10789				6216	3.46e5
CG7252	DRSC21492				8287	3.95e5
CG15643	DRSC19679				5604	4.85e5
Cyp6d4 (Cytochrome P450 6d4)	DRSC16633				8869	3.56e5
CG11756	DRSC19424	3			5487	4.27e5
eRF3 (eukaryotic translation release factor 3)	DRSC03322				5807	3.53e5
CG6908	DRSC16131				7031	3.53e5
CG4576	DRSC15604				6734	3.22e5
cmb (combover)	DRSC09790				6659	3.44e5
CG5039	DRSC15703				6632	2.93e5
CG10465	DRSC04848				5639	2.74e5
CG34430	DRSC06499				6551	3.59e5
CG31600	DRSC22541				4223	3.83e5
MME1 (Mitochondrial Magnesium Exporter 1)	DRSC02714				15299	5.64e5
CG4004	DRSC19791		reporter ratio lowered past the hit cutoff		4855	4.68e5
CG4004	DRSC19882				5414	4.14e5
topi (matotopetli)	DRSC16431				6963	3.72e5
CalpA (Calpain-A)	DRSC07352				6315	2.80e5
ND-20 (NADH dehydrogenase (ubiquinone) 20 kDa subunit)	DRSC20164				6626	4.91e5
Tep3 (Thioester-containing protein 3)	DRSC03452				11103	6.38e5
CG18304	DRSC02664				8641	5.35e5
CG6171	DRSC15982				7860	5.14e5
CG4363	DRSC04465				7348	4.07e5
SmydA-4 (SET and MYND domain containing, arthropod-specific, member 4)	DRSC19390				4740	3.74e5
SmydA-4 (SET and MYND domain containing, arthropod-specific, member 4)	DRSC21866				10444	8.15e5
smp-30 (Senescence marker protein-30)	DRSC17059				6516	3.52e5
FASN3 (Fatty acid synthase 3)	DRSC20882				5987	4.20e5
b (black)	DRSC03487				8543	5.44e5
CG32379	DRSC10318				6328	3.48e5
geko	DRSC10044				7771	3.41e5
geko	DRSC10045				6360	3.31e5
CG11300	DRSC04104				6587	3.34e5
Vps4 (Vacuolar protein sorting 4)	DRSC19338				6386	3.52e5
PpD5 (Protein phosphatase D5)	DRSC04641				8057	5.55e5
PpD5 (Protein phosphatase D5)	DRSC23312				5784	4.13e5
CG8516	DRSC16437				7231	3.79e5
CG7208	DRSC16212				6987	3.91e5
CG5886	DRSC15908				7690	5.75e5
mRpL22 (mitochondrial ribosomal protein L22)	DRSC19915				6099	4.15e5
Den1 (Deneddylase 1)	DRSC07195				6563	3.38e5
CG30275	DRSC04163				6847	4.62e5
Nepl3 (Neprilysin-like 3)	DRSC02681			reporter ratio raised past the hit cutoff	15251	6.14e5
CG10863	DRSC08145			reporter ratio lowered past the hit cutoff (active)	7854	5.04e5
bt (bent)	DRSC17129				6358	2.94e5
bt (bent)	DRSC17171				5862	2.91e5
sncRNA:430e + His2A:CG33859 + His2A:CG33817 + 42 more	DRSC25850			reporter ratio raised past the hit cutoff		
mRF1 (mitochondrial translation release factor 1)	DRSC02880				13680	8.89e5
Naa20B (N(alpha)-acetyltransferase 20 B)	DRSC21442				10205	4.70e5
CG1927	DRSC08146				8152	2.96e5
Hat1 (Histone acetyltransferase 1)	DRSC12298				7367	3.42e5
Sfmbt (Scm-related gene containing four mbt domains)	DRSC02552				28367	5.01e5
CG16775	DRSC10225				7763	4.62e5
mahe (maheshvara)	DRSC17755				8322	4.28e5
AOX3 (Aldehyde oxidase 3)	DRSC15955				8703	6.46e5
Osi16 (Osiris 16)	DRSC12135				6775	4.18e5
Osi16 (Osiris 16)	DRSC21323				10202	7.01e5
Stt3A	DRSC20514				7919	4.16e5
dgt1 (dim gamma-tubulin 1)	DRSC15301				13927	5.83e5
shep (alan shepard)	DRSC08748				4359	2.79e5
shep (alan shepard)	DRSC09765				6122	3.41e5
shep (alan shepard)	DRSC09771				6238	3.25e5
CG13046	DRSC09927				7214	4.10e5
tara (taranis)	DRSC17076				5983	3.41e5
tara (taranis)	DRSC23014				3075	3.16e5
tara (taranis)	DRSC29664			reporter ratio lowered past the hit cutoff		
Rab3-GEF (Rab3 GDP-GTP exchange factor)	DRSC19954				4884	3.71e5
Rab3-GEF (Rab3 GDP-GTP exchange factor)	DRSC19955				4287	3.30e5
Rab3-GEF (Rab3 GDP-GTP exchange factor)	DRSC19956				4063	2.62e5
CG3894	DRSC01762				5432	3.93e5
CG3894	DRSC04012				4939	5.59e5
CG3894	DRSC04429				4483	3.89e5

Records listed so far whose gene name starts with B or b:
gene knocked down	dsRNA	siRNA reporter hit score	stable siRNA reporter change	miRNA reporter change	stable assay Renilla, run 1 (luminescence)	stable assay firefly, run 1 (luminescence)
b (black)	DRSC03487				8543	5.44e5
bt (bent)	DRSC17129				6358	2.94e5
bt (bent)	DRSC17171				5862	2.91e5
